{"source": "patent US20060128721A1", "about": "“Novel formulations of opioid-based treatments of pain comprising substituted 1,4-di-piperidin-4-yl-piperazine derivatives” (priority 2003, published 2006)", "system": "loperamide-induced retching", "test": "Antiemetic effects: loperamide-induced retching in ferrets", "format": "in vivo", "settings": "comparison with prior-art NK1 antagonists, Table 11", "description": "The antiemetic effects have been determined using the loperamide-induced retching model (i.e. retching induced by an opioid) in ferrets. To exclude species differences in antiemetic activiey, both compounds have also been tested for antiemetic activity against apomorphine in dogs.\nAntagonism of emesis induced by the peripherally selective opioid loperamide (0.31 mg/kg, s.c.) was studied over a 1 h-period starting immediately after the emetic challenge in ferrets pretreated with test compound or solvent. In control animals pre-treated with solvent, loperamide induced pronounced retching (mean±SD: 95±39 counts; n=[…]) and, to a lesser extent, vomiting (5±4).", "note": "At least one structure is not confirmed: it was looked up by name or label, or the drawing left a doubt."}
{"molecule": "Cc1nnsc1C(=O)N1CCC(N2CCN([C@H]3CCN(C(=O)c4cc(C(F)(F)F)cc(C(F)(F)F)c4)[C@H](Cc4ccccc4)C3)CC2)CC1", "note": "[Compound 77, (2-benzyl-4-{4-[1-(4-methyl-[1,2,3]thiadiazole-5-carbonyl)-piperidin-4-yl]-piperazin-1-yl}-piperidin-I -yl)-(3,5-bis-trifluoromethyl-phenyl)-methanone]", "values": [{"measurement": "antiemetic activity (in words)", "result": "excellent antiemetic activity"}]}
